According to PMC4550699:
Results are given in words; binding and its absence hold for the method and conditions named. For some assays here: Binding seen in cells or lysates may run through a third protein. Sequences can lack the tags named with a protein. Values belong to the binder of their own block, whether it stands above or below them.

The chains behind the UniProt entries cited, without tags or fusion partners. Where a name states a change or a piece, a line headed by the entry shows the natural chain unless it says otherwise.
UniProt Q9ZW35: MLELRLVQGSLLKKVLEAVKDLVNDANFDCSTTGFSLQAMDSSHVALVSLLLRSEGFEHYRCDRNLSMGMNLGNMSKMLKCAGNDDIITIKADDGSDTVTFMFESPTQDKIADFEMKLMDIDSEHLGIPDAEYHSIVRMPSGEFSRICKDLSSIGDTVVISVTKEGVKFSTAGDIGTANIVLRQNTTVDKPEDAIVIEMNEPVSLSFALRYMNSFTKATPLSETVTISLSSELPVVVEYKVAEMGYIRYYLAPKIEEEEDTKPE
UniProt Q9M7Q7: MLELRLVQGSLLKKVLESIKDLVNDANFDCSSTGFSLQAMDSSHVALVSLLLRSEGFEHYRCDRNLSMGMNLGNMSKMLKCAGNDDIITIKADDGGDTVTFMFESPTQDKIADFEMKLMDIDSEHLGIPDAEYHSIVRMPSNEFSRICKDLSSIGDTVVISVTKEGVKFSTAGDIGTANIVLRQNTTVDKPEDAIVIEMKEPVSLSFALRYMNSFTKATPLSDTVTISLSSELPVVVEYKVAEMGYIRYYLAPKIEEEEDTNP

Tests used:
[1] = molecular target: PCNA2 (Proliferating Cell Nuclear Antigen 2), split-ubiquitin Y2H fusion (Arabidopsis thaliana) (UniProt Q9ZW35); test: two-hybrid; split-ubiquitin Y2H (MoBiTec transactivating starter kit), yeast NMY51, bait in pDHB1Gateway, prey in pPR3-NGateway; growth on SC-Leu-Trp-His with 10 mM 3-AT and X-gal filter assay; both orientations tested, the target of a row is the bait
[2] = molecular target: PCNA1 (Proliferating Cell Nuclear Antigen 1), split-ubiquitin Y2H fusion (Arabidopsis thaliana) (UniProt Q9M7Q7); test: as above
[3] = molecular target: PCNA1_CtermGFP (Arabidopsis thaliana) (UniProt Q9M7Q7); test: split reporter; BiFC (split GFP) in N. benthamiana leaf cells, transient co-expression with p19, confocal microscopy; CycD_NtermGFP with PCNA_CtermGFP (Figure 2), one of four combinations analysed
[4] = molecular target: PCNA2_CtermGFP (Arabidopsis thaliana) (UniProt Q9ZW35); test: as above
[5] = molecular target: PCNA2_RFP (Arabidopsis thaliana) (UniProt Q9ZW35); test: condition: FRET efficiency 0.87%; threshold 1.19%; FRET or BRET; FLIM-FRET in nuclei of transiently transformed N. benthamiana leaf cells; donor GFP fusion, acceptor RFP fusion; E = (1 - tauDA/tauD) x 100%; FRET efficiency of free GFP/RFP (1.19%) used as threshold
[6] = molecular target: RFP_PCNA2 (Arabidopsis thaliana) (UniProt Q9ZW35); test: condition: FRET efficiency 0.41%; threshold 1.19%; FRET or BRET; FLIM-FRET in nuclei of transiently transformed N. benthamiana leaf cells; donor GFP fusion, acceptor RFP fusion; E = (1 - tauDA/tauD) x 100%; FRET efficiency of free GFP/RFP (1.19%) used as threshold
[7] = molecular target: RFP_PCNA1 (Arabidopsis thaliana) (UniProt Q9M7Q7); test: as above
[8] = molecular target: PCNA1_RFP (Arabidopsis thaliana) (UniProt Q9M7Q7); test: condition: FRET efficiency 1.75%; threshold 1.19%; FRET or BRET; FLIM-FRET in nuclei of transiently transformed N. benthamiana leaf cells; donor GFP fusion, acceptor RFP fusion; E = (1 - tauDA/tauD) x 100%; FRET efficiency of free GFP/RFP (1.19%) used as threshold
[9] = molecular target: RFP_PCNA1 (Arabidopsis thaliana) (UniProt Q9M7Q7); test: condition: FRET efficiency 0.42%; threshold 1.19%; FRET or BRET; FLIM-FRET in nuclei of transiently transformed N. benthamiana leaf cells; donor GFP fusion, acceptor RFP fusion; E = (1 - tauDA/tauD) x 100%; FRET efficiency of free GFP/RFP (1.19%) used as threshold
[10] = molecular target: PCNA1_RFP (Arabidopsis thaliana) (UniProt Q9M7Q7); test: condition: FRET efficiency 1.13%; threshold 1.19%; FRET or BRET; FLIM-FRET in nuclei of transiently transformed N. benthamiana leaf cells; donor GFP fusion, acceptor RFP fusion; E = (1 - tauDA/tauD) x 100%; FRET efficiency of free GFP/RFP (1.19%) used as threshold
[11] = molecular target: PCNA2_RFP (Arabidopsis thaliana) (UniProt Q9ZW35); test: condition: FRET efficiency 0.08%; threshold 1.19%; FRET or BRET; FLIM-FRET in nuclei of transiently transformed N. benthamiana leaf cells; donor GFP fusion, acceptor RFP fusion; E = (1 - tauDA/tauD) x 100%; FRET efficiency of free GFP/RFP (1.19%) used as threshold
[12] = molecular target: RFP_PCNA2 (Arabidopsis thaliana) (UniProt Q9ZW35); test: condition: FRET efficiency 0.84%; threshold 1.19%; FRET or BRET; FLIM-FRET in nuclei of transiently transformed N. benthamiana leaf cells; donor GFP fusion, acceptor RFP fusion; E = (1 - tauDA/tauD) x 100%; FRET efficiency of free GFP/RFP (1.19%) used as threshold

binding [1]: no binding | binding [2]: no binding
B1: CycD3;3, split-ubiquitin Y2H fusion (protein, UniProt Q9SN11 1-361)
chain: MALEEEEESQNAPFCVLDGLFCEEESEFHEQVDLCDESVEKFPFLNLGLSDHDMLWDDDELSTLISKQEPCLYDEILDDEFLVLCREKALDWIFKVKSHYGFNSLTALLAVNYFDRFITSRKFQTDKPWMSQLTALACLSLAAKVEEIRVPFLLDFQVEEARYVFEAKTIQRMELLVLSTLDWRMHPVTPISFFDHIIRRYSFKSHHQLEFLSRCESLLLSIIPDSRFLSFSPSVLATAIMVSVIRDLKMCDEAVYQSQLMTLLKVDSEKVNKCYELVLDHSPSKKRMMNWMQQPASPIGVFDASFSSDSSNESWVVSASASVSSSPSSEPLLKRRRVQEQQMRLSSINRMFFDVLSSSPR

binding [3]: no binding | binding [4]: no binding
B4: CycD3;1_NtermGFP (protein, UniProt P42753 1-376)
chain: MAIRKEEESREEQSNSFLLDALYCEEEKWDDEGEEVEENSSLSSSSSPFVVLQQDLFWEDEDLVTLFSKEEEQGLSCLDDVYLSTDRKEAVGWILRVNAHYGFSTLAAVLAITYLDKFICSYSLQRDKPWMLQLVSVACLSLAAKVEETQVPLLLDFQVEETKYVFEAKTIQRMELLILSTLEWKMHLITPISFVDHIIRRLGLKNNAHWDFLNKCHRLLLSVISDSRFVGYLPSVVAAATMMRIIEQVDPFDPLSYQTNLLGVLNLTKEKVKTCYDLILQLPVDRIGLQIQIQSSKKRKSHDSSSSLNSPSCVIDANPFNSDESSNDSWSASSCNPPTSSSSPQQQPPLKKMRGAEENEKKKPILHLPWAIVATP

binding [3]: no binding | binding [4]: no binding
B6: CycD1;1_NtermGFP (protein, UniProt P42751 1-339)
chain: MRSYRFSDYLHMSVSFSNDMDLFCGEDSGVFSGESTVDFSSSEVDSWPGDSIACFIEDERHFVPGHDYLSRFQTRSLDASAREDSVAWILKVQAYYNFQPLTAYLAVNYMDRFLYARRLPETSGWPMQLLAVACLSLAAKMEEILVPSLFDFQVAGVKYLFEAKTIKRMELLVLSVLDWRLRSVTPFDFISFFAYKIDPSGTFLGFFISHATEIILSNIKEASFLEYWPSSIAAAAILCVANELPSLSSVVNPHESPETWCDGLSKEKIVRCYRLMKAMAIENNRLNTPKVIAKLRVSVRASSTLTRPSDESSFSSSSPCKRRKLSGYSWVGDETSTSN

The next lines start with the binder.

B2: CycD3;3_NtermGFP (protein, UniProt Q9SN11 1-361)
chain: B1 chain
binding [3]: no binding | binding [4]: no binding

B3: CycD3;1, split-ubiquitin Y2H fusion (protein, UniProt P42753 1-376)
chain: B4 chain
binding [1]: no binding | binding [2]: no binding

B5: CycD3;1_GFP (protein, UniProt P42753 1-376)
chain: B4 chain
binding [5]: no binding | binding [6]: no binding | binding [7]: no binding | binding [8]: no binding

B7: CycD1;1_GFP (protein, UniProt P42751 1-339)
chain: B6 chain
binding [9]: no binding | binding [10]: no binding | binding [11]: no binding | binding [12]: no binding

B8: CycD1;1, split-ubiquitin Y2H fusion (protein, UniProt P42751 1-339)
chain: B6 chain
binding [1]: no binding | binding [2]: no binding
